The source of these data is article PMC6684519.

Chains of the proteins cited; added tags and fusions are not shown. Lines headed by an entry give the natural chain unless they say otherwise; changes in a name come on top.
UniProt P14780: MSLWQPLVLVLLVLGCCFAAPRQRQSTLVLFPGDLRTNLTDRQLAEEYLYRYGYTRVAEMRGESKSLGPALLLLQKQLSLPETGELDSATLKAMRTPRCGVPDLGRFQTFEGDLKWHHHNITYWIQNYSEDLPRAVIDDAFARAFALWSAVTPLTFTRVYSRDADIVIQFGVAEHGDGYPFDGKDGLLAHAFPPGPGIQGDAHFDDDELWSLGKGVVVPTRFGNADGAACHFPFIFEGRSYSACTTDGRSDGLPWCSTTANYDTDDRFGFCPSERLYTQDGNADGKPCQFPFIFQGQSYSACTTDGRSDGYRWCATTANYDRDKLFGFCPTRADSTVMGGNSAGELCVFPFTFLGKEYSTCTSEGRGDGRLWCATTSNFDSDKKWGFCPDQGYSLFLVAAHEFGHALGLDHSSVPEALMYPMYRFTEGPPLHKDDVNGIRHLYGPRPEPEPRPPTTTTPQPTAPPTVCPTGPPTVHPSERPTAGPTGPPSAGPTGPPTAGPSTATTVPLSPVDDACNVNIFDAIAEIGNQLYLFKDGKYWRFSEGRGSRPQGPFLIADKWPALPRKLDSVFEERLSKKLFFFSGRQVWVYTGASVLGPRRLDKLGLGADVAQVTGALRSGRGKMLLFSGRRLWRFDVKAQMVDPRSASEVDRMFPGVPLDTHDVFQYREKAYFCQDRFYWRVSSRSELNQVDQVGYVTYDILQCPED

In the assay the target is Hic-5 (hydrogen peroxide inducible clone-5) (human (endogenous in HCC413)) (UniProt O43294). The assay is described as follows: co-IP; IP/western analysis of endogenous proteins in HCC413; cells untreated or treated with LZ-8 (5 μg/ml).

Results are given in words; binding and its absence hold for the method and conditions named. In cells and extracts the contact can be indirect.

In the case of “matrix metalloproteinase 9 (MMP9) (from UniProt P14780)”, the binding entry is reported as “no binding”.
